# Measurements: patent US20150307614A1, “Enhanced immunological responses” (Duke University, priority 2009, published 2015)
# At least one compound was matched to its structure with a doubt left.
# What was measured:
# GBM = conditions: cited from earlier work
# [1] = TMZ-induced lymphopenia in patients with GBM; assay type: in vivo, human; conditions: TMZ treatment, unpublished
# Experimental: It also induces transient, Grade 3 lymphopenia (<500 cells/uL) in 70% of patients with GBM after the first cycle (150-200 mg/m2/5 d) with nadirs occurring 14-21 days after treatment (n=10). TMZ treatment also leads to an increase in the proportion of TRegs in the peripheral blood (unpublished). Despite this, we have been able to induce and maintain potent EGFRvIII-specific humoral and cellular immune responses in patients with GBM receiving TMZ. Thus, we evaluated TMZ for its capacity to induce homeostatic proliferation and to enhance antigen-specific immune responses in a murine model. Markedly elevated levels of antigen-specific T-cells could be achieved and maintained in mice receiving antigen-specific vaccination after TMZ-induced lymphopenia when compared to normal hosts.
smiles,measurement,setting,value
"Cn1nnc2c(C(N)=O)ncn2c1=O [TMZ, temozolomide]",survival in patients with GBM,"GBM; human, in vivo",survival benefit
same,median survival (95% CI),GBM; published Phase III trial of the TMZ regimen,"14.6 (10.9, 21.2) months"
same,TTP,"GBM; standard of care radiotherapy and temozolomide (Stupp et al., 2005)",7 months
same,proportion of TRegs in the peripheral blood,[1],increase
